Source: PubChem BioAssay AID1259254 (NCATS, 2017)

- Assay: 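Genome-wide screen for genes that prevent DNA re-replication in cancer cells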 (primary screen)
- System: human HCT116 colorectal cancer cells
- Reagents: single siRNA against human genes
- Time to read-out: 3 days
- Detection: 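Imaged Hoechst DNA stain sorts each cell into a cycle phase by DNA amount; per plate, G2 fraction set to 0% for non-targeting and 100% for GMNN siRNA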
- Direction: G2 robust z-score: higher = more G2 cells, more excess DNA replication
- Call rule: 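An siRNA counts as active if its G2 robust z-score lies at least 5 MADs above the screen median; here such calls match roughly 38% of GMNN control or more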
Here is a random part of about 59,000 reagents tested. About 1,550 of them (2.6%) were called active. 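G2 share is only a proxy for re-replication; each gene was hit by three separate siRNAs, and active genes were retested.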 Entries without a mark were called inactive. The numbers tell different reagents against one gene apart. Further read-outs or replicates are left out here. The record does not give: the amount of reagent.

G2 robust z-score, by target gene and reagent
IL12A (GeneID 3592): #1 0.312; #2 1; #3 0.91
STAC3 (GeneID 246329): #1 2.58; #2 -0.771; #3 0.632
OOSP1 (GeneID 255649): #1 0.336; #2 -0.593; #3 -0.728
RAB29 (GeneID 8934): #1 -0.836; #2 1.37; #3 -0.584
JMJD1C (GeneID 221037): #1 -0.474; #2 -0.139; #3 -0.918
NPNT (GeneID 255743): #1 -0.277; #2 -0.0468; #3 -0.722
DPP9 (GeneID 91039): #1 -0.282; #2 7.13 (active); #3 0.457

Already shown: entries from further up.
G2 robust z-score, by target gene and reagent
RAB29 (GeneID 8934): #1 -0.836; #2 1.37; #3 -0.584
JMJD1C (GeneID 221037): #1 -0.474; #2 -0.139; #3 -0.918
NPNT (GeneID 255743): #1 -0.277

More records follow:
G2 robust z-score, by target gene and reagent
RNMT (GeneID 8731): #1 -0.996; #2 -0.436; #3 0.604
ZNF420 (GeneID 147923): #1 -0.0159; #2 4.19; #3 -0.964
EIF1AD (GeneID 84285): #1 -0.598; #2 -0.498; #3 -0.795
SLC1A5 (GeneID 6510): #1 -1.37; #2 0.716; #3 0.0465
AP4E1 (GeneID 23431): #1 -0.0375; #2 0.882; #3 2.66
CEND1 (GeneID 51286): #1 -1.71; #2 0.461; #3 2.24
GAL3ST1 (GeneID 9514): #1 2.24; #2 0.00743; #3 0.0801
TYSND1 (GeneID 219743): #1 -0.558; #2 1.14; #3 1.54
BABAM1 (GeneID 29086): #1 0.692; #2 -0.292; #3 3.59
